Experimental data from PubChem BioAssay AID248 (DTP/NCI, 2004).
The list is a part of this screen's results and no random one: it is rich in T/C values a quarter to a half above the control, in often repeated tests (any T/C) and in doses without a T/C. Other doses and runs of a compound stand elsewhere. T/C is the treated group as % of the vehicle group. Some entries give survivors of the animals treated and no T/C: the source holds a T/C of zero for them, seemingly a mark for toxic or unscored doses. Some doses without a T/C left all or most animals alive at the check, yet need not have been tolerated: the source hardly ever lists a survival T/C far under the control, and the zero likely stands for such cases as well. Counts of survivors are from the toxicity check (mostly the fifth day) where no day follows; animals may have died later. Schedules are NCI's codes, read here as Q, the interval in days (D) or hours (H), X, the number of doses. Some entries hold several experiments; the values are given in rising order. Some schedules carry Z or #; the key to these is not given. Where survival is the endpoint, this PubChem deposit counts one and a half times the control or more as active, and values a quarter to a half above the control carry no call in these data; other NCI protocols may use other cut-offs. Some T/C values are followed by the survivors on the day toxicity was checked, most often the fifth; where none is given, no animal had died by that day. Counts like (3×) give the number of equal values in this list.

Tested on: L1210 leukemia ip in BDF1 mice, survival T/C
Assay: NCI In Vivo Anticancer Drug Screen. Data for tumor model L1210 Leukemia (intraperitoneal) in B6D2F1 (BDF1) mice
Conditions: higher T/C = longer survival
[1] = T/C endpoint: mean survival time, dose: 200.0 mg/kg/injection, schedule: Q01DX005 (ip), vehicle: saline

Nc1nc2n[nH]nc2c(=O)[nH]1
T/C (T/C endpoint: mean survival time, dose: 100.0 mg/kg/injection, schedule: Q01DX Z (ip), vehicle: other): 116, 125, 131, 136 % of control
survivor count (T/C endpoint: mean survival time, dose: 100.0 mg/kg/injection, schedule: Q01DX Z (oral), vehicle: other): 5 of 6
survivor count (T/C endpoint: mean survival time, dose: 100.0 mg/kg/injection, schedule: Q01DX Z (oral), vehicle: water): 6 of 6
T/C (T/C endpoint: mean survival time, dose: 117.0 mg/kg/injection, schedule: Q01DX001 (ip), vehicle: carboxymethylcellulose (CMC)): 136 % of control
T/C (T/C endpoint: mean survival time, dose: 125.0 mg/kg/injection, schedule: Q01DX001 (ip), vehicle: carboxymethylcellulose (CMC), evaluated on day 40): 148 % of control
T/C (T/C endpoint: mean survival time, dose: 125.0 mg/kg/injection, schedule: Q01DX001 (ip), vehicle: carboxymethylcellulose (CMC), evaluated on day 60): 135 % of control
T/C (T/C endpoint: mean survival time, dose: 125.0 mg/kg/injection, schedule: Q06DX003 (ip), vehicle: carboxymethylcellulose (CMC)): 137 % of control
T/C (T/C endpoint: mean survival time, dose: 125.0 mg/kg/injection, schedule: Q08DX003 (ip), vehicle: carboxymethylcellulose (CMC)): 144 % of control
T/C (T/C endpoint: mean survival time, dose: 125.0 mg/kg/injection, schedule: Q10DX003 (ip), vehicle: carboxymethylcellulose (CMC)): 127 % of control
T/C (T/C endpoint: mean survival time, dose: 128.0 mg/kg/injection, schedule: Q## X024 (ip), vehicle: other): 143 % of control
T/C (T/C endpoint: mean survival time, dose: 150.0 mg/kg/injection, schedule: Q01DX005 (ip), vehicle: other): 140 % of control
T/C (T/C endpoint: mean survival time, dose: 150.0 mg/kg/injection, schedule: Q01DX009 (ip), vehicle: other): 148 % of control
T/C (T/C endpoint: mean survival time, dose: 150.0 mg/kg/injection, schedule: Q01DX Z (ip), vehicle: other): 127 % of control
T/C (T/C endpoint: mean survival time, dose: 150.0 mg/kg/injection, schedule: Q03DX Z (ip), vehicle: water): 134 % of control
T/C (T/C endpoint: mean survival time, dose: 178.8 mg/kg/injection, schedule: Q01DX Z (ip), vehicle: carboxymethylcellulose (CMC)): 145 % of control
T/C (T/C endpoint: mean survival time, dose: 179.0 mg/kg/injection, schedule: Q01DX001 (ip), vehicle: carboxymethylcellulose (CMC)): 134 % of control
T/C (T/C endpoint: mean survival time, dose: 200.0 mg/kg/injection, schedule: Q01DX005 (ip), vehicle: saline with Tween-80): 93, 110, 118, 120 [5 of 6 alive], 126, 128 [5 of 6 alive], 133, 135, 141, 143, 144, 146 (2×), 152, 155, 156, 161 [5 of 6 alive], 172, 180, 187, 191 % of control
T/C [1]: 94 [6 of 7 alive], 95, 100, 101, 113, 115 [5 of 6 alive], 121, 122, 130, 134, 135, 141 (2×), 142, 143, 145, 146 (2×), 147, 148, 150 (2×), 153 (2×), 154 (2×), 156, 157 (3×), 158 (2×), 159, 160, 163 [5 of 6 alive] (2×), 166, 173, 174 (2×), 179, 194 % of control
survivor count [1]: 5 of 6, 6 of 6, 7 of 7
survivor count (T/C endpoint: mean survival time, dose: 200.0 mg/kg/injection, schedule: Q01DX009 (ip), vehicle: carboxymethylcellulose (CMC)): 8 of 10
survivor count (T/C endpoint: mean survival time, dose: 200.0 mg/kg/injection, schedule: Q01DX009 (ip), vehicle: saline): 5 of 6
T/C (T/C endpoint: mean survival time, dose: 200.0 mg/kg/injection, schedule: Q01DX010 (ip), vehicle: alkali diluted with saline): 115, 140, 140 [5 of 6 alive], 155 % of control
T/C (T/C endpoint: mean survival time, dose: 200.0 mg/kg/injection, schedule: Q01DX Z (ip), vehicle: other): 134 % of control
survivor count (T/C endpoint: mean survival time, dose: 200.0 mg/kg/injection, schedule: Q01DX Z (oral), vehicle: other): 1 of 6
survivor count (T/C endpoint: mean survival time, dose: 200.0 mg/kg/injection, schedule: Q01DX Z (oral), vehicle: water): 3 of 6
survivor count (T/C endpoint: mean survival time, dose: 200.0 mg/kg/injection, schedule: Q#A X Z (ip), vehicle: carboxymethylcellulose (CMC)): 5 of 5
survivor count (T/C endpoint: mean survival time, dose: 225.0 mg/kg/injection, schedule: Q01DX015 (ip), vehicle: clinical formulation): 0 of 6
survivor count (T/C endpoint: mean survival time, dose: 225.0 mg/kg/injection, schedule: Q01DX015 (ip), vehicle: water): 3 of 6 and 4 of 6
T/C (T/C endpoint: mean survival time, dose: 248.0 mg/kg/injection, schedule: Q## X024 (ip), vehicle: other): 147 % of control
T/C (T/C endpoint: mean survival time, dose: 250.0 mg/kg/injection, schedule: Q01DX001 (ip), vehicle: carboxymethylcellulose (CMC), evaluated on day 40): 146 % of control
T/C (T/C endpoint: mean survival time, dose: 250.0 mg/kg/injection, schedule: Q01DX001 (ip), vehicle: carboxymethylcellulose (CMC), evaluated on day 60): 144 % of control
T/C (T/C endpoint: mean survival time, dose: 250.0 mg/kg/injection, schedule: Q08DX003 (ip), vehicle: carboxymethylcellulose (CMC)): 147 % of control
T/C (T/C endpoint: mean survival time, dose: 250.0 mg/kg/injection, schedule: Q10DX003 (ip), vehicle: carboxymethylcellulose (CMC)): 132 % of control
T/C (T/C endpoint: mean survival time, dose: 267.0 mg/kg/injection, schedule: Q01DX001 (ip), vehicle: carboxymethylcellulose (CMC)): 137 % of control
T/C (T/C endpoint: mean survival time, dose: 300.0 mg/kg/injection, schedule: Q01DX005 (ip), vehicle: other): 136 % of control
T/C (T/C endpoint: mean survival time, dose: 300.0 mg/kg/injection, schedule: Q01DX009 (ip), vehicle: other): 137 % of control [9 of 10 alive]
survivor count (T/C endpoint: mean survival time, dose: 300.0 mg/kg/injection, schedule: Q01DX Z (im), vehicle: carboxymethylcellulose (CMC)): 6 of 6
survivor count (T/C endpoint: mean survival time, dose: 300.0 mg/kg/injection, schedule: Q01DX Z (ip), vehicle: carboxymethylcellulose (CMC)): 6 of 6
T/C (T/C endpoint: mean survival time, dose: 300.0 mg/kg/injection, schedule: Q02DX005 (ip), vehicle: carboxymethylcellulose (CMC)): 136 % of control
T/C (T/C endpoint: mean survival time, dose: 400.0 mg/kg/injection, schedule: Q01DX001 (ip), vehicle: steroid suspending solution): 129 % of control
survivor count (T/C endpoint: mean survival time, dose: 400.0 mg/kg/injection, schedule: Q01DX009 (ip), vehicle: water): 1 of 6 and 2 of 6
T/C (T/C endpoint: mean survival time, dose: 400.0 mg/kg/injection, schedule: Q01DX010 (ip), vehicle: alkali diluted with saline): 126 and 127 % of control
survivor count (T/C endpoint: mean survival time, dose: 400.0 mg/kg/injection, schedule: Q01DX Z (im), vehicle: carboxymethylcellulose (CMC)): 4 of 5
survivor count (T/C endpoint: mean survival time, dose: 400.0 mg/kg/injection, schedule: Q01DX Z (ip), vehicle: carboxymethylcellulose (CMC)): 3 of 6
survivor count (T/C endpoint: mean survival time, dose: 400.0 mg/kg/injection, schedule: Q01DX Z (oral), vehicle: water): 1 of 6
T/C (T/C endpoint: mean survival time, dose: 500.0 mg/kg/injection, schedule: Q01DX001 (sc), vehicle: carboxymethylcellulose (CMC)): 139 % of control
T/C (T/C endpoint: mean survival time, dose: 500.0 mg/kg/injection, schedule: Q06DX003 (ip), vehicle: carboxymethylcellulose (CMC)): 132 % of control
T/C (T/C endpoint: mean survival time, dose: 500.0 mg/kg/injection, schedule: Q08DX003 (ip), vehicle: carboxymethylcellulose (CMC)): 148 % of control
survivor count (T/C endpoint: mean survival time, dose: 500.0 mg/kg/injection, schedule: Q## X003 (ip), vehicle: carboxymethylcellulose (CMC)): 5 of 10
T/C (T/C endpoint: mean survival time, dose: 500.0 mg/kg/injection, schedule: Q## X024 (ip), vehicle: other): 131 % of control
survivor count (T/C endpoint: mean survival time, dose: 600.0 mg/kg/injection, schedule: Q02DX005 (ip), vehicle: carboxymethylcellulose (CMC)): 7 of 10
survivor count (T/C endpoint: mean survival time, dose: 700.0 mg/kg/injection, schedule: Q01DX001 (ip), vehicle: water): 0 of 6
survivor count (T/C endpoint: mean survival time, dose: 700.0 mg/kg/injection, schedule: Q07DX Z (ip), vehicle: water): 1 of 6
T/C (T/C endpoint: mean survival time, dose: 750.0 mg/kg/injection, schedule: Q01DX001 (ip), vehicle: carboxymethylcellulose (CMC)): 132 % of control
T/C (T/C endpoint: mean survival time, dose: 750.0 mg/kg/injection, schedule: Q06DX003 (ip), vehicle: carboxymethylcellulose (CMC)): 139 % of control
T/C (T/C endpoint: mean survival time, dose: 750.0 mg/kg/injection, schedule: Q08DX003 (ip), vehicle: carboxymethylcellulose (CMC)): 136 % of control
survivor count (T/C endpoint: mean survival time, dose: 1000.0 mg/kg/injection, schedule: Q01DX001 (ip), vehicle: carboxymethylcellulose (CMC)): 6 of 10
T/C (T/C endpoint: mean survival time, dose: 1000.0 mg/kg/injection, schedule: Q01DX001 (sc), vehicle: carboxymethylcellulose (CMC)): 137 % of control
survivor count (T/C endpoint: mean survival time, dose: 1000.0 mg/kg/injection, schedule: Q## X003 (ip), vehicle: carboxymethylcellulose (CMC)): 0 of 10 and 3 of 10
T/C (T/C endpoint: median survival time, dose: 50.0 mg/kg/injection, schedule: Q01DX009 (ip), vehicle: other): 144 % of control
T/C (T/C endpoint: median survival time, dose: 100.0 mg/kg/injection, schedule: Q01DX009 (ip), vehicle: other): 144 % of control
